We go through 36 compounds from the supplement of paper PMC6143611.

The test system of test [1] is Danio rerio larva rod photoreceptor outer segment. In words: rod outer segment growth distance Dg, difference from same-week DMSO control mean; higher = more outer segment growth. The note with it: 20 µM; treatment time: 4 days (6-10 dpf).
The test system is the same in test [2]. The test can be described thus: rod outer segment shedding distance Ds, difference from same-week DMSO control mean; higher = less outer segment shedding. As to conditions: 20 µM; treatment time: 4 days (6-10 dpf).

Structures can show the parent of a compound that is named as a salt. ± gives the uncertainty stated by the source. Some of the results follow. Plates or batches differ in their baseline, so values are only roughly comparable.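 At 6 dpf, larvae had a heat-shock-induced fluorescent stripe placed in rod outer segments; shedding distance, from stripe to outer segment tip, was measured in confocal stacks, roughly three fish per compound. Controls received 0.2% DMSO vehicle; compounds were flagged for ≥20% change versus same-week control and p < 0.001 (Dunnett test, mixed-effects models).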

Take `Nc1ccccc1NC(=O)c1ccc(CNC(=O)OCc2cccnc2)cc1` [Entinostat (MS-275)]: the “rod outer segment growth distance Dg” value in test [1] is -0.57 ± 0.13 um. Further, the “rod outer segment shedding distance Ds” value in test [2] was -0.74 ± 0.23 um.

Regarding `Nc1ccc2ncnc(NCCc3ccc(Oc4ccccc4)cc3)c2c1`, the “rod outer segment growth distance Dg” value in test [1] is -0.4 ± 0.17 um. Moreover, the “rod outer segment shedding distance Ds” value in test [2] is -0.61 ± 0.14 um.

As to `CC(C(=O)O)c1ccc(C(=O)c2cccs2)cc1` (configuration not stated) [Suprofen], in test [1], the “rod outer segment growth distance Dg” value was -0.15 ± 0.21 um. In test [2], the “rod outer segment shedding distance Ds” value was -0.33 ± 0.15 um.

On to `CCC[S+]([O-])c1ccc2[nH]c(NC(=O)OC)nc2c1` (configuration not stated) [Albendazole Oxide], for which, in test [1], the “rod outer segment growth distance Dg” value was -0.97 ± 0.18 um. In addition, the “rod outer segment shedding distance Ds” value in test [2] was -0.55 ± 0.27 um.

Consider `CN(C)C(=O)COC(=O)Cc1ccc(OC(=O)c2ccc(NC(=N)N)cc2)cc1` [Camostat Mesilate], for which, in test [1], the “rod outer segment growth distance Dg” value is 0.05 ± 0.18 um. Further, in test [2], the “rod outer segment shedding distance Ds” value is -0.31 ± 0.11 um.

Regarding `NS(=O)(=O)Cc1noc2ccccc12` [Zonisamide], in test [1], the “rod outer segment growth distance Dg” value was -0.72 ± 0.16 um. In addition, the “rod outer segment shedding distance Ds” value in test [2] came out at 0.11 ± 0.19 um.

In the case of `C[C@@H]1C(=O)O[C@H]2C[C@@]34[C@H]5C[C@@H](C(C)(C)C)[C@]36[C@@H](OC(=O)[C@@H]6O)O[C@@]4(C(=O)O5)[C@]21O` [Ginkgolide A], the “rod outer segment growth distance Dg” value in test [1] is -0.71 ± 0.24 um. For the same compound, in test [2], the “rod outer segment shedding distance Ds” value was -0.99 ± 0.27 um.

In the case of `NC(=O)Cc1cccc(C(=O)c2ccccc2)c1N` [Nepafenac], in test [1], the “rod outer segment growth distance Dg” value turned out to be 0.18 ± 0.23 um. The “rod outer segment shedding distance Ds” value in test [2] is -0.13 ± 0.2 um.

As for `CCC(=O)O[C@]1(C(=O)CCl)[C@@H](C)C[C@H]2[C@@H]3CCC4=CC(=O)C=C[C@]4(C)[C@@]3(F)[C@@H](O)C[C@@]21C` [Clobetasol propionate], the “rod outer segment growth distance Dg” value in test [1] is -0.89 ± 0.29 um. Besides, in test [2], the “rod outer segment shedding distance Ds” value was determined as 0.52 ± 0.16 um.

Turning to `CCc1cccc2c3c([nH]c12)C(CC)(CC(=O)O)OCC3` (configuration not stated) [Etodolac], in test [1], the “rod outer segment growth distance Dg” value came out at 1.48 ± 0.17 um. Moreover, the “rod outer segment shedding distance Ds” value in test [2] was -0.13 ± 0.18 um.

`CN(C)Cc1cccc(N=C(c2ccccc2)c2c(O)[nH]c3cc(C(=O)N(C)C)ccc23)c1`: the “rod outer segment growth distance Dg” value in test [1] is -1.86 ± 0.23 um. Moreover, the “rod outer segment shedding distance Ds” value in test [2] amounted to 1.05 ± 0.19 um.

As for `COc1nc(C)cnc1NS(=O)(=O)c1cccnc1-c1ccc(-c2nnco2)cc1` [Zibotentan (ZD4054)], the “rod outer segment growth distance Dg” value in test [1] is -0.15 ± 0.17 um. The “rod outer segment shedding distance Ds” value in test [2] is -0.25 ± 0.15 um.

As to `COc1ccc2cc([C@H](C)C(=O)O)ccc2c1` [Naproxen], the “rod outer segment growth distance Dg” value in test [1] is -0.5 ± 0.25 um. Besides, the “rod outer segment shedding distance Ds” value in test [2] worked out at 1.31 ± 0.22 um.

On to `CO[C@H]1/C=C/O[C@@]2(C)Oc3c(C)c(O)c4c(O)c(c(/C=N/N5CCN(C)CC5)c(O)c4c3C2=O)NC(=O)/C(C)=C\C=C\[C@H](C)[C@H](O)[C@@H](C)[C@@H](O)[C@@H](C)[C@H](OC(C)=O)[C@@H]1C` [Rifampin], for which the “rod outer segment growth distance Dg” value in test [1] was determined as 0 ± 0.2 um. The “rod outer segment shedding distance Ds” value in test [2] is -0.21 ± 0.16 um.

In the case of `CC[C@H](CO)Nc1nc(NCc2ccccc2)c2ncn(C(C)C)c2n1` [Roscovitine (Seliciclib,CYC202)], the “rod outer segment growth distance Dg” value in test [1] was -0.04 ± 0.27 um. In test [2], the “rod outer segment shedding distance Ds” value was -0.31 ± 0.19 um.

In the case of `Cc1ccc(NC(=O)c2ccc(CN3CCN(C)CC3)cc2)cc1Nc1nccc(-c2cccnc2)n1` [Imatinib (STI571)], the “rod outer segment growth distance Dg” value in test [1] was determined as 1.19 ± 0.31 um. The “rod outer segment shedding distance Ds” value in test [2] was -0.39 ± 0.26 um.

For `O=C1NC(=O)C(c2ccccc2)(c2ccccc2)N1` [Phenytoin], the “rod outer segment growth distance Dg” value in test [1] is -0.3 ± 0.22 um. The “rod outer segment shedding distance Ds” value in test [2] is -0.58 ± 0.37 um.

Consider `Nc1nnc(-c2cccc(Cl)c2Cl)c(N)n1` [Lamotrigine], for which the “rod outer segment growth distance Dg” value in test [1] was -0.25 ± 0.17 um. For the same compound, the “rod outer segment shedding distance Ds” value in test [2] is 0.46 ± 0.16 um.

For the compound `Oc1cc(O)cc(/C=C/c2ccc(O)c(O)c2)c1` [Piceatannol], the “rod outer segment growth distance Dg” value in test [1] was -0.2 ± 0.17 um. Further, in test [2], the “rod outer segment shedding distance Ds” value was 0.02 ± 0.17 um.

In the case of `Cc1nc(NC(=O)N2CCC[C@H]2C(N)=O)sc1-c1ccnc(C(C)(C)C(F)(F)F)c1`, the “rod outer segment growth distance Dg” value in test [1] is -0.46 ± 0.2 um. The “rod outer segment shedding distance Ds” value in test [2] is -0.22 ± 0.14 um.

Consider `C[C@@H](CN1CC(=O)NC(=O)C1)N1CC(=O)NC(=O)C1` [Dexrazoxane HCl (ICRF-187, ADR-529)], for which the “rod outer segment growth distance Dg” value in test [1] was determined as 0.26 ± 0.18 um. Besides, the “rod outer segment shedding distance Ds” value in test [2] was -0.45 ± 0.2 um.

On to `C[C@@H](O)[C@H]1C(=O)N2C(C(=O)O)=C(S[C@@H]3CN[C@H](C(=O)N(C)C)C3)[C@H](C)[C@H]12` [Meropenem], for which, in test [1], the “rod outer segment growth distance Dg” value was found to be 0.49 ± 0.19 um. Further, the “rod outer segment shedding distance Ds” value in test [2] is -0.78 ± 0.24 um.

`CC(C)C[C@@H](C(=O)N[C@H](C(=O)OC1CCCC1)c1ccccc1)[C@H](O)C(=O)NO` [Tosedostat (CHR2797)]: the “rod outer segment growth distance Dg” value in test [1] was -1.13 ± 0.2 um. Also, the “rod outer segment shedding distance Ds” value in test [2] was determined as 0.76 ± 0.16 um.

With `Cc1nc(=O)c2cc(CN(C)c3ccc(C(=O)N[C@@H](CCC(=O)O)C(=O)O)s3)ccc2[nH]1` [Raltitrexed], the “rod outer segment growth distance Dg” value in test [1] is 0.15 ± 0.17 um. In addition, in test [2], the “rod outer segment shedding distance Ds” value is -1.91 ± 0.26 um.

As for `CN(C)c1ccc(-c2nc3ncc(Cl)c(N4CCN(CC(=O)Nc5nccs5)CC4)c3[nH]2)cc1`, the “rod outer segment growth distance Dg” value in test [1] is -2.12 ± 0.18 um. In addition, the “rod outer segment shedding distance Ds” value in test [2] turned out to be 1.54 ± 0.16 um.

`COCCCN1CCC(NC(=O)c2cc(Cl)c(N)c3c2OCC3)CC1` [Prucalopride]: the “rod outer segment growth distance Dg” value in test [1] was -0.22 ± 0.21 um. Besides, in test [2], the “rod outer segment shedding distance Ds” value was -0.43 ± 0.13 um.

Regarding `Cn1nnc2c(C(N)=O)ncn2c1=O` [Temozolomide], the “rod outer segment growth distance Dg” value in test [1] was determined as 0.11 ± 0.26 um. In test [2], the “rod outer segment shedding distance Ds” value turned out to be 0.15 ± 0.33 um.

Consider `C[C@]12CC[C@@H]3c4ccc(O)cc4C[C@@H](CCCCCCCCC[S+]([O-])CCCC(F)(F)C(F)(F)F)[C@H]3[C@@H]1CC[C@@H]2O` (some centres not stated) [Fulvestrant], for which the “rod outer segment growth distance Dg” value in test [1] was -0.14 ± 0.16 um. The “rod outer segment shedding distance Ds” value in test [2] is -1.23 ± 0.21 um.

Regarding `O=C(Nc1c[nH]nc1-c1nc2ccc(CN3CCOCC3)cc2[nH]1)NC1CC1`, the “rod outer segment growth distance Dg” value in test [1] was -0.57 ± 0.18 um. Further, the “rod outer segment shedding distance Ds” value in test [2] was -0.72 ± 0.2 um.

Take `C=CCc1cc(OC)c(O)c(C(=O)NCCO)c1` [Alibendol]: in test [1], the “rod outer segment growth distance Dg” value is -0.25 ± 0.22 um. For the same compound, in test [2], the “rod outer segment shedding distance Ds” value is -0.66 ± 0.26 um.

Take `O=c1c(O)c(-c2ccc(O)cc2)oc2cc(O)cc(O)c12` [Kaempferol]: the “rod outer segment growth distance Dg” value in test [1] was 0.15 ± 0.3 um. Besides, in test [2], the “rod outer segment shedding distance Ds” value is 0.09 ± 0.3 um.

Consider `Cc1ccc(Sc2cncc3sc(C(N)=O)cc23)cc1`, for which the “rod outer segment growth distance Dg” value in test [1] is -1.09 ± 0.34 um. For the same compound, the “rod outer segment shedding distance Ds” value in test [2] was 0.26 ± 0.17 um.

On to `COc1c(O)cc2c(c1O)[C@@H]1O[C@H](CO)[C@@H](O)[C@H](O)[C@H]1OC2=O` [Bergenin], for which, in test [1], the “rod outer segment growth distance Dg” value was -0.4 ± 0.34 um. Also, the “rod outer segment shedding distance Ds” value in test [2] was 0.06 ± 0.3 um.

Consider `CN(C/C=C/C#CC(C)(C)C)Cc1cccc2ccccc12` [Terbinafine HCl], for which the “rod outer segment growth distance Dg” value in test [1] is -2.19 ± 0.61 um. Also, the “rod outer segment shedding distance Ds” value in test [2] was -1.32 ± 0.39 um.

As to `COc1cc(OC)c(C(=O)CCCN2CCCC2)c(OC)c1` [Buflomedil HCl], the “rod outer segment growth distance Dg” value in test [1] is -0.33 ± 0.22 um. Besides, the “rod outer segment shedding distance Ds” value in test [2] was -0.31 ± 0.14 um.

For `Cc1cc(Nc2ncnc3ccc(-c4ccc(CNCCS(C)(=O)=O)o4)cc23)ccc1Oc1ccn2ncnc2c1` [HER2-Inhibitor-1], the “rod outer segment growth distance Dg” value in test [1] is -0.48 ± 0.13 um. Besides, in test [2], the “rod outer segment shedding distance Ds” value is -0.31 ± 0.12 um.
